# Laboratory results as given in the supplement of paper PMC12819154, “High-throughput peptide-centric local stability assay extends protein–ligand identification to membrane proteins, tissues and bacteria” (Nature Structural & Molecular Biology, 2025).
# The chains behind the UniProt entries cited, without tags or fusion partners. Where a name states a change or a piece, a line headed by the entry shows the natural chain unless it says otherwise.
# UniProt Q8NBH2: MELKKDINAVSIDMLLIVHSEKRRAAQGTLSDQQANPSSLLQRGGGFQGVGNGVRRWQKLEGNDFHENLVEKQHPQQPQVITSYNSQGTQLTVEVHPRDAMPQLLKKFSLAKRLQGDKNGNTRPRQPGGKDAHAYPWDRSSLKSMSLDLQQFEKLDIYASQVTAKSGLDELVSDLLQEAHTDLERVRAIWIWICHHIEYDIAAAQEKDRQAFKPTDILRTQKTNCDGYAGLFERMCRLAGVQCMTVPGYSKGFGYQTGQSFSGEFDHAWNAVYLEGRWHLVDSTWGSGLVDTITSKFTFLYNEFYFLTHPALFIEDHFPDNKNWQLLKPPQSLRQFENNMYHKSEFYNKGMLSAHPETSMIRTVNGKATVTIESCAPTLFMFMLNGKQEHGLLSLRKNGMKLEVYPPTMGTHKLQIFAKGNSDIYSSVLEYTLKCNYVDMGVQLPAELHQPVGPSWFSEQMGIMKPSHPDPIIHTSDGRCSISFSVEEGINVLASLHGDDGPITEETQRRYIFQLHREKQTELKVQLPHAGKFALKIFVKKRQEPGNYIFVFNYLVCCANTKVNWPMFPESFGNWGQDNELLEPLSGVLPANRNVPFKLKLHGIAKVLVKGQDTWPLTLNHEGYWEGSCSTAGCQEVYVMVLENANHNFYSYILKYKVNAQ
# UniProt Q8N4T8: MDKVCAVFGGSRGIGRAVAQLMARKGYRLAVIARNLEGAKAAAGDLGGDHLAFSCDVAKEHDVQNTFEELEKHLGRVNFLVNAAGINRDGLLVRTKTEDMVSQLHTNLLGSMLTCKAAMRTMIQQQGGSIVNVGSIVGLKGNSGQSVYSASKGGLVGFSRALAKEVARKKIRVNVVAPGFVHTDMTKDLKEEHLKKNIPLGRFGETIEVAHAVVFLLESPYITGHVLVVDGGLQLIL
# UniProt Q8NI22: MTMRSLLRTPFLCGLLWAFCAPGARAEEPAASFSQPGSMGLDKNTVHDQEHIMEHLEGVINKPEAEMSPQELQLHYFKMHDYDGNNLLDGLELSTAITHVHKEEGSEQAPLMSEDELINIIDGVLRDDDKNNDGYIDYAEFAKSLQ
# UniProt Q8N5G2: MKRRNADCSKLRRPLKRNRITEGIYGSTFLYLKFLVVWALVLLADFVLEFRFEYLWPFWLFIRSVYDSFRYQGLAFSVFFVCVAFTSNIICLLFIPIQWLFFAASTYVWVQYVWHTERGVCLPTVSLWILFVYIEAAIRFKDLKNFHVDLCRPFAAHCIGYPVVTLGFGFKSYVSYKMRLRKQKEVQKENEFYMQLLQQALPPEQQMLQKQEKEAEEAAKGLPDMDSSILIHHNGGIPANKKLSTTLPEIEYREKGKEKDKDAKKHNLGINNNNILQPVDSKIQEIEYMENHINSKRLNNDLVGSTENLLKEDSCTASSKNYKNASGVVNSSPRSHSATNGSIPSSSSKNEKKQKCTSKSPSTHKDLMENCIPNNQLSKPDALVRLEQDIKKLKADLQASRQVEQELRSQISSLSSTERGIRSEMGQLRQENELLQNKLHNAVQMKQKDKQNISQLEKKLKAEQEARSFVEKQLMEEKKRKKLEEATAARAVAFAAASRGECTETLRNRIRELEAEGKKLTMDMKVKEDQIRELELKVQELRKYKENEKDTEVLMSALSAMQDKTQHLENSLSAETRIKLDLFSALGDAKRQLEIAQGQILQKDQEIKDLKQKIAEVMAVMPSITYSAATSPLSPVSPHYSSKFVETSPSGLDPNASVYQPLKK
# UniProt Q8N2G6: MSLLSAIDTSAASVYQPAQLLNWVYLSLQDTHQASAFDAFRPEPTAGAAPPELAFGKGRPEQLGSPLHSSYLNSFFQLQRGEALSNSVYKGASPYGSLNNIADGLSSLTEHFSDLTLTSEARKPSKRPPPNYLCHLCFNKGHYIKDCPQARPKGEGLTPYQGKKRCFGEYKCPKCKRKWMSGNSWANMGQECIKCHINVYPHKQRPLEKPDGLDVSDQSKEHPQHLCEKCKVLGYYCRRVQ
# UniProt Q8N5M4: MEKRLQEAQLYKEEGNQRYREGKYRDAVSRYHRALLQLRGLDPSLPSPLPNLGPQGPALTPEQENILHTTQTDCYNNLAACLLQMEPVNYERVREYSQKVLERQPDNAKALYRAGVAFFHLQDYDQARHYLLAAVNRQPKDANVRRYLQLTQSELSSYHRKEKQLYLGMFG
# UniProt Q8N5U6: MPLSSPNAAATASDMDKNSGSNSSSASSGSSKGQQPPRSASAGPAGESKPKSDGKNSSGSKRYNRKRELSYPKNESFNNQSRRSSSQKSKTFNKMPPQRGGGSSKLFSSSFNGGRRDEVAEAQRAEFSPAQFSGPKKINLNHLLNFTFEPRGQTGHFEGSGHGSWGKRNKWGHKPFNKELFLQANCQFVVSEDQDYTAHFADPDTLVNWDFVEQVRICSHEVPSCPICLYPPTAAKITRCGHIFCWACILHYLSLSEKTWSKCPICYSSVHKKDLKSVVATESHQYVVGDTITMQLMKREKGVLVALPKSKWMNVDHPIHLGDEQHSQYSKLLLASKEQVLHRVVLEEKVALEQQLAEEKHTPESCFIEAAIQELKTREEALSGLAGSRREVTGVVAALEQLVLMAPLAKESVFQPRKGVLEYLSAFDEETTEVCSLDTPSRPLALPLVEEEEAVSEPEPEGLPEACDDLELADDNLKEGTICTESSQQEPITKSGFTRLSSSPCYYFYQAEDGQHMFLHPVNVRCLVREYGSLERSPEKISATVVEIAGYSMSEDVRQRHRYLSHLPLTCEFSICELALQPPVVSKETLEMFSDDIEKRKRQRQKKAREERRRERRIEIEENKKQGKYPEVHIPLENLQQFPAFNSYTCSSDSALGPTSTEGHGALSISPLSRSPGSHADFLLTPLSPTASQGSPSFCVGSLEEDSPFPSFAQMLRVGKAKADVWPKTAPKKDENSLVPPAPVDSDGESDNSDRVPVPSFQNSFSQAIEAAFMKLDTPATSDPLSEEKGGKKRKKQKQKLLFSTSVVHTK
# UniProt Q8N4P3, whole entry: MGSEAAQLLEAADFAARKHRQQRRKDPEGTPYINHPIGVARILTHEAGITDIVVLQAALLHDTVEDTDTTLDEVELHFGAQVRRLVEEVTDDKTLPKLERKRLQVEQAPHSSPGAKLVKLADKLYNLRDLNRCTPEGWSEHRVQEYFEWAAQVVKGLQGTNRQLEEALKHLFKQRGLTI
# UniProt Q8N5L8: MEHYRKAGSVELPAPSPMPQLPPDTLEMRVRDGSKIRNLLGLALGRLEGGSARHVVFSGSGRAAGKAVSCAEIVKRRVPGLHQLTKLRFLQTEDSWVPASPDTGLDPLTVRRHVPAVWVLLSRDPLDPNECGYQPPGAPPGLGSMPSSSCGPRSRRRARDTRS
# UniProt Q8NCD3, whole entry: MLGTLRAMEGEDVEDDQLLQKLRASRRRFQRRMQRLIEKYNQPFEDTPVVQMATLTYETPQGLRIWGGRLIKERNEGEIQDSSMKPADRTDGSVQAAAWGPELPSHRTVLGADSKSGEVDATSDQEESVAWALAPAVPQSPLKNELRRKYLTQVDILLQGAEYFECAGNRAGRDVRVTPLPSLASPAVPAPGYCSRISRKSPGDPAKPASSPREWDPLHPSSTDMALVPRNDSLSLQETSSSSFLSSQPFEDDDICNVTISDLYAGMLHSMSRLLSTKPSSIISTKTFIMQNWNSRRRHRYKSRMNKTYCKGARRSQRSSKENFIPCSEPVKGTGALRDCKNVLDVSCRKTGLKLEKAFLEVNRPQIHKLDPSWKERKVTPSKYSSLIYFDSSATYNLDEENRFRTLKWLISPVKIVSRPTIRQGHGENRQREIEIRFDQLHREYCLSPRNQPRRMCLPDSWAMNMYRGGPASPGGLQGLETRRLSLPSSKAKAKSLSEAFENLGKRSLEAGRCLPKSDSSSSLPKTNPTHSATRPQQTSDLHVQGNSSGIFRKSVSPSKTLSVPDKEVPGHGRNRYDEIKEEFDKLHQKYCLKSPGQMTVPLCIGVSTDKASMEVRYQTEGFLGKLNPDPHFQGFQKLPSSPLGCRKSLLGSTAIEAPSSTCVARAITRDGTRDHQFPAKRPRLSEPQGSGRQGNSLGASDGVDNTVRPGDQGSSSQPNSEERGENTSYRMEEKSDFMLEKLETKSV
# UniProt Q8N635: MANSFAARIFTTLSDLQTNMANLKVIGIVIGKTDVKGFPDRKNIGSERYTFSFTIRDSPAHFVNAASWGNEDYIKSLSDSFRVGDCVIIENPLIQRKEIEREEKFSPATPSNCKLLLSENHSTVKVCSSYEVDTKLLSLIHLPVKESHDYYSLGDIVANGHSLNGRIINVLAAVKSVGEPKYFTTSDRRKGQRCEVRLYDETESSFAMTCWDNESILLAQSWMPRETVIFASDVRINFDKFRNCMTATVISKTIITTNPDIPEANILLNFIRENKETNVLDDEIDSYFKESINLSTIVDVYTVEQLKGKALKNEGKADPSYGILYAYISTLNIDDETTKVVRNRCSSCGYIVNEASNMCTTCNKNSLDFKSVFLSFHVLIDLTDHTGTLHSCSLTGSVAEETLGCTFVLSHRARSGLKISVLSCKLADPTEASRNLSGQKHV
# UniProt Q8NB37: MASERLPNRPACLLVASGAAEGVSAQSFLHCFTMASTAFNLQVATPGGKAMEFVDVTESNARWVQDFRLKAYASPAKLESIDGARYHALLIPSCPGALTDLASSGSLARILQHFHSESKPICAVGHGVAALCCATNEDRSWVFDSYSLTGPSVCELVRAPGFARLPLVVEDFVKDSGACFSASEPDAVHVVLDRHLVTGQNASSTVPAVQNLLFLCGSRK
# UniProt Q8NB90: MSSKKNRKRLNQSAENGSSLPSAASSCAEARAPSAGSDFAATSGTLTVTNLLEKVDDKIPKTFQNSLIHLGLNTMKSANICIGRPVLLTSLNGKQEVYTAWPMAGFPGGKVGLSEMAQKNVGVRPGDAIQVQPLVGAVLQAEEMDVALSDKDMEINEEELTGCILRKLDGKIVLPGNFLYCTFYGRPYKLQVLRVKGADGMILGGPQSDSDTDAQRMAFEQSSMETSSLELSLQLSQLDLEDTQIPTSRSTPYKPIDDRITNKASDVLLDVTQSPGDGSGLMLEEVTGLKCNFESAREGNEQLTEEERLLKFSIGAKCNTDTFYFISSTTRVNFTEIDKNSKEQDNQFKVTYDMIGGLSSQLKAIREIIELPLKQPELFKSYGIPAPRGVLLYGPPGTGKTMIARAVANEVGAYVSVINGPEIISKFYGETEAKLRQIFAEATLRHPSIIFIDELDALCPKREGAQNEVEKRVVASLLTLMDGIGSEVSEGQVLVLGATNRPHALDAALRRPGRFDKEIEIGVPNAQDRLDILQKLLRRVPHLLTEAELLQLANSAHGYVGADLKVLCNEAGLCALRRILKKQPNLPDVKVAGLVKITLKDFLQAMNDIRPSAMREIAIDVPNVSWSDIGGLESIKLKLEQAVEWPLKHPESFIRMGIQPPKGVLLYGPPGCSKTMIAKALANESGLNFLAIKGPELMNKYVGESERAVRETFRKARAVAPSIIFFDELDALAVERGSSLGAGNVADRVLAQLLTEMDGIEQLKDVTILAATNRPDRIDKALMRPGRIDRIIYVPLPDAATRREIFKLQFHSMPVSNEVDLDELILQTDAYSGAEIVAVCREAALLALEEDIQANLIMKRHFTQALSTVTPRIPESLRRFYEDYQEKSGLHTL
# UniProt Q8NI08: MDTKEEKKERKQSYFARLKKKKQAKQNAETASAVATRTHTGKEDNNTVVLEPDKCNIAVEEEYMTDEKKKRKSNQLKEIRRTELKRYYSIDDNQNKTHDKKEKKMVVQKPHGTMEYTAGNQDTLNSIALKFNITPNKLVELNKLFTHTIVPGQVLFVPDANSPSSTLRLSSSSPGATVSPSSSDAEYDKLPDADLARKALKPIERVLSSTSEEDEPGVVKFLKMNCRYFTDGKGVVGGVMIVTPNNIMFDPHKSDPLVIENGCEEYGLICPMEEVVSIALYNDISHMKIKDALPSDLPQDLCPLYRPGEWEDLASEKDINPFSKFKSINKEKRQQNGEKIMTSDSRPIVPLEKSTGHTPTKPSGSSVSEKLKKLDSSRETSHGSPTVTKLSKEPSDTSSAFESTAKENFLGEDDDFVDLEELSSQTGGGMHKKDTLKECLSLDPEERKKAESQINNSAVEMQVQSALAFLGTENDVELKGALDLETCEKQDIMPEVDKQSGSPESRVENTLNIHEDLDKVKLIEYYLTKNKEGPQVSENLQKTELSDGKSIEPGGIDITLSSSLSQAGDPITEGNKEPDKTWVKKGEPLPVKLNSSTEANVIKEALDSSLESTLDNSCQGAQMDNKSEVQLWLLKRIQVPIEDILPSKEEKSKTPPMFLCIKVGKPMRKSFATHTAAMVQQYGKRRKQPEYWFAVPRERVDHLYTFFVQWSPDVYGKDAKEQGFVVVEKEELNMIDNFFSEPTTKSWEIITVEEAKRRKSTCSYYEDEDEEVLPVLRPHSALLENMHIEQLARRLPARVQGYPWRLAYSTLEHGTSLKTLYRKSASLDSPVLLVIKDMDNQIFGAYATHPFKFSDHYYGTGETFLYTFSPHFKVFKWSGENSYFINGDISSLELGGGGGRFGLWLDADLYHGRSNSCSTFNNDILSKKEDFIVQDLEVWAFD
# The list shows a part of the results. Most entries show no effect beyond the scatter of the controls.
# Compound: Cc1nc(Nc2ncc(C(=O)Nc3c(C)cccc3Cl)s2)cc(N2CCN(CCO)CC2)n1 [dasatinib]
# Assay: log2 fold change of tryptic peptide abundance, ligand vs vehicle (limited proteolysis) (log2 ratio); higher = more trypsin-susceptible (destabilized)
# Conditions: ligand concentration: 5 uM; sample: K562 cleared lysate
row,Target,log2 fold change
1,"DOCK8 (peptide sequence: KNQGSPEICGFKK, peptide start residue: 135) (UniProt Q8NF50)",0.546
2,"TTC30B (peptide sequence: SLVEQLPSR, peptide start residue: 134) (UniProt Q8N4P2)",0.0286
3,"UniProt Q8NBH2 (peptide sequence: YIFQLHR, peptide start residue: 511)",0.0634
4,"TXNDC5 (peptide sequence: LFKPGQEAVK, peptide start residue: 141) (UniProt Q8NBS9)",-0.557
5,"CBR4 (peptide sequence: DLKEEHLK, peptide start residue: 188) (UniProt Q8N4T8)",0.404
6,"NAV1 (peptide sequence: TPLAPLAPNLGKPSRIPR, peptide start residue: 159) (UniProt Q8NEY1)",-0.484
7,"MCFD2 (peptide sequence: DDDKNNDGYIDYAEFAK, peptide start residue: 127) (UniProt Q8NI22)",0.0786
8,"UniProt Q8N5G2 (peptide sequence: KHNLGINNNNILQPVDSK, peptide start residue: 265)",0.388
9,"FLCN (peptide sequence: KSDMCEGCR, peptide start residue: 78) (UniProt Q8NFG4)",-0.544
10,"ZCCHC24 (peptide sequence: KRCFGEYK, peptide start residue: 164) (UniProt Q8N2G6)",0.359
11,"ASCC3 (peptide sequence: QFSILPPHILTR, peptide start residue: 1129) (UniProt Q8N3C0)",0.493
12,"RBM15B (peptide sequence: NLFIGNLDHSVSEVELR, peptide start residue: 338) (UniProt Q8NDT2)",-0.503
13,"UBR7 (peptide sequence: NIDGIGDQEVIKPENGEHQDSTLK, peptide start residue: 214) (UniProt Q8N806)",-0.557
14,"TTC9C (peptide sequence: HYLLAAVNRQPK, peptide start residue: 129) (UniProt Q8N5M4)",-0.241
15,"NATD1 (peptide sequence: AVLLYEYVGKR, peptide start residue: 41) (UniProt Q8N6N6)",-0.351
16,"UniProt Q8NEV8 (peptide sequence: MYIPHTDKSNDIK, peptide start residue: 781)",-0.634
17,"RNF10 (peptide sequence: NESFNNQSR, peptide start residue: 74) (UniProt Q8N5U6)",-0.441
18,"UniProt Q8N972 (peptide sequence: MHTGEKPYK, peptide start residue: 517)",0.815
19,"ZMIZ2 (peptide sequence: EEPDGPALKR, peptide start residue: 693) (UniProt Q8NF64)",0.302

# Some of the entries so far, with bars between the fields:
row | Target | log2 fold change
1 | DOCK8 (peptide sequence: KNQGSPEICGFKK, peptide start residue: 135) (UniProt Q8NF50) | 0.546
4 | TXNDC5 (peptide sequence: LFKPGQEAVK, peptide start residue: 141) (UniProt Q8NBS9) | -0.557
5 | CBR4 (peptide sequence: DLKEEHLK, peptide start residue: 188) (UniProt Q8N4T8) | 0.404
7 | MCFD2 (peptide sequence: DDDKNNDGYIDYAEFAK, peptide start residue: 127) (UniProt Q8NI22) | 0.0786
10 | ZCCHC24 (peptide sequence: KRCFGEYK, peptide start residue: 164) (UniProt Q8N2G6) | 0.359
12 | RBM15B (peptide sequence: NLFIGNLDHSVSEVELR, peptide start residue: 338) (UniProt Q8NDT2) | -0.503
14 | TTC9C (peptide sequence: HYLLAAVNRQPK, peptide start residue: 129) (UniProt Q8N5M4) | -0.241
17 | RNF10 (peptide sequence: NESFNNQSR, peptide start residue: 74) (UniProt Q8N5U6) | -0.441
18 | UniProt Q8N972 (peptide sequence: MHTGEKPYK, peptide start residue: 517) | 0.815

# Continued.

row,Target,log2 fold change
1,"ZC3H8 (peptide sequence: IKLECEQIPKK, peptide start residue: 42) (UniProt Q8N5P1)",-0.701
2,"HDDC3 (peptide sequence: RLQVEQAPHSSPGAK, peptide start residue: 102) (UniProt Q8N4P3)",0.347
3,"NECAP1 (peptide sequence: ESQEMDARPK, peptide start residue: 139) (UniProt Q8NC96)",0.105
4,"ZNF808 (peptide sequence: NGHEAPTTK, peptide start residue: 123) (UniProt Q8N4W9)",0.591
5,"UniProt Q8N5L8 (peptide sequence: HVVFSGSGR, peptide start residue: 54)",-0.253
6,"HJURP (peptide sequence: YQTEGFLGK, peptide start residue: 618) (UniProt Q8NCD3)",-0.125
7,"MEIOB (peptide sequence: IINVLAAVK, peptide start residue: 167) (UniProt Q8N635)",-0.132
8,"UniProt Q8NB37 (peptide sequence: LPLVVEDFVK, peptide start residue: 165)",-0.065
9,"ANKLE1 (peptide sequence: SQGTEAELNAR, peptide start residue: 264) (UniProt Q8NAG6)",0.185
10,"UniProt Q8NHM5 (peptide sequence: SSLTYFQQQLKPGKEDK, peptide start residue: 847)",-0.199
11,"UniProt Q8NDW4 (peptide sequence: KILREYK, peptide start residue: 322)",0.157
12,"ATL2 (peptide sequence: DLVEYFK, peptide start residue: 351) (UniProt Q8NHH9)",0.239
13,"ZGPAT (peptide sequence: LFQTEEKIER, peptide start residue: 459) (UniProt Q8N5A5)",-0.503
14,"SPATA5 (peptide sequence: DFLQAMNDIRPSAMR, peptide start residue: 601) (UniProt Q8NB90)",0.0957
15,"EHBP1L1 (peptide sequence: ETQAQACPQEGTEAHGAR, peptide start residue: 340) (UniProt Q8N3D4)",0.274
16,"GUF1 (peptide sequence: NMIFIDQNR, peptide start residue: 501) (UniProt Q8N442)",0.331
17,"UniProt Q8N554 (peptide sequence: APGASMERPSAEER, peptide start residue: 98)",0.242
18,"NCOA7 (peptide sequence: QNAETASAVATR, peptide start residue: 26) (UniProt Q8NI08)",0.123
